According to PubChem BioAssay AID1671190 (National Center for Advancing Translational Sciences (NCATS), 2021):
About 6,100 (1.1%) of roughly 580,000 compounds were called active. Inconclusive results, whose numbers are uncertain, are shown with a selection of clear calls. The call rests on the fitted dose curve; in most records, active means well fitted inhibition curve with a large enough effect; inconclusive means small, poorly fitted or top-dose-only effect, or another doubt; inactive means no such curve, though single readings can be large or run the other way. Potencies of inconclusive entries are doubtful fits and often do not repeat.

Chains of the proteins cited; added tags and fusions are not shown. Lines headed by an entry give the natural chain unless they say otherwise; changes in a name come on top.
UniProt P18054: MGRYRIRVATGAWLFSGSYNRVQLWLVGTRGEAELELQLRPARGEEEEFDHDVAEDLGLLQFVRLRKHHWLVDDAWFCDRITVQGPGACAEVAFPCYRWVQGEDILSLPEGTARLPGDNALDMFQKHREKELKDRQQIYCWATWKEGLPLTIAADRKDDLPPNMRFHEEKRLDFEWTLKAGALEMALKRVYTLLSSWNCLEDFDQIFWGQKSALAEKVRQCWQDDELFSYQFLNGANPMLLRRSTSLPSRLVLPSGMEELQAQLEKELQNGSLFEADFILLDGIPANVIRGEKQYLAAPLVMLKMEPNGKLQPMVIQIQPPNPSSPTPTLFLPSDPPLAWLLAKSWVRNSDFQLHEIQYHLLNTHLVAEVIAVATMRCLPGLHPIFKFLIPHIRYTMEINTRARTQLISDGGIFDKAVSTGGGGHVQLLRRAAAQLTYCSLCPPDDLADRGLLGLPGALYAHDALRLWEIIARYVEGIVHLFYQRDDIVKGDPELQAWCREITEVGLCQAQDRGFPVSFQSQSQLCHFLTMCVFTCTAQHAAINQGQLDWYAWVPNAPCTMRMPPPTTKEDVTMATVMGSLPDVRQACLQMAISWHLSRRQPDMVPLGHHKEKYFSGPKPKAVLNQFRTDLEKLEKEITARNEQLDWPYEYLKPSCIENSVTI

molecular target: Polyunsaturated fatty acid lipoxygenase ALOX12 (Homo sapiens) (UniProt P18054); assay: Primary qHTS assay for inhibitors of human arachidonate 12S-lipoxygenase (ALOX12): Round 2; settings: purified 12hLO, xylenol orange hydroperoxide absorbance; activity change, negative = inhibition: at 108 µM (top of the series) unless noted
Procedure, shortened: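 Purified human 12hLO at 150 nM in 25 mM Hepes, 0.01% Triton X-100, pH 7.0, preincubated 15 min at room temperature with compound. Reaction started with 40 uM arachidonic acid, 30 min at room temperature. Hydroperoxide measured by Fe-xylenol orange, 573/405 nm absorbance ratio.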
On the % scale 0 is the no-effect control and ±100 the full control effect; potency means the concentration at half of the fitted maximal effect.

With CCCCCCn1cc(CN2CC(N3CCN(CCN(C)C)CC3)CS2(=O)=O)nn1 (centres undefined) as the compound, how does the Potency read?
The Potency was inconclusive: 11.2 µM [inhibitor, full curve].

O=C(CCc1nc2ccccc2[nH]1)N1CCN(C(=O)c2ccco2)CC1 was tested. Which “activity change, negative = inhibition” value did it give?
The value was inactive: 482%.

Which Potency does the source give for COc1cccc(CN2CC[C@H](c3nc4cc(Cl)ccc4o3)C2)c1 here?
The Potency was inconclusive: 10 µM [inhibitor, full curve, poor fit].

For COc1cccc(/C=C/C(=O)c2cccc(O)c2)c1, which Potency is on record?
The Potency was inconclusive: 50.1 µM [inhibitor, partial curve, poor fit].

Which “activity change, negative = inhibition” value does the source give for Cc1ccc(N=Nc2c(C)[nH][nH]c2=O)c(C)c1 here?
Its value is inactive: -25.6%.

CN(C)S(=O)(=O)c1cccc(NC(=O)c2ccccc2SCC(=O)N2CCCC2)c1 was tested. Which Potency did it give?
Its Potency is inconclusive: 39.8 µM [inhibitor, partial curve, poor fit].

O=C1C=C(N2CCOCC2)c2cccc3cccc1c23 was tested. Which Potency did it give?
The Potency was inconclusive: 56.2 µM [inhibitor, partial curve, poor fit].

Which “activity change, negative = inhibition” value does the source give for Cc1ccccc1NC(=O)c1ccc(Cl)c(S(=O)(=O)N2CCCCCC2)c1 here?
The value was inactive: -24.4%.

Which “activity change, negative = inhibition” value does the source give for Cc1nonc1NC(=O)CSc1nc2cc(Cl)ccc2c2c1CCCC2 here?
The value was inactive: -20.5%.

Cc1ccccc1N1Cc2c(NCCc3ccc(Cl)cc3)ncnc2N(C)CC1=O was tested. Which Potency did it give?
Its Potency is inconclusive: 35.5 µM [inhibitor, full curve].

For CC1CN(c2sc(S(C)(=O)=O)nc2S(=O)(=O)c2ccc(Cl)cc2)CC(C)O1 (centres undefined), which “activity change, negative = inhibition” value is on record?
The value was inactive: 24.7%.

How did the “activity change, negative = inhibition” value turn out when O=C(N/N=C/c1ccccc1O)c1cc[n+]([O-])cc1 was run?
Its value is inactive: 36.8%.

Which “activity change, negative = inhibition” value does the source give for C=C1C(=O)OC2C=C(CO)C3OC3C3OC3(C)CC(OC(=O)/C(=C/C)COC(C)=O)C12 (centres undefined) here?
The value was inactive: 0.086%.

How did the Potency turn out when O=C(Cn1ccc2cc(S(=O)(=O)N3CCCC3)ccc21)NCc1ccc(Cl)cc1 was run?
Its Potency is inconclusive: 158 µM [inhibitor, partial curve, poor fit].

c1ccc2cc(CNCc3cccc4ccccc34)ccc2c1 was tested. Which Potency did it give?
Its Potency is inconclusive: 50.1 µM [inhibitor, partial curve, poor fit].

How did the Potency turn out when COc1ccc(CNC(=O)c2ccc3c(c2)N=C(C)c2c(C)ccc(C)c2S3)cc1 was run?
Its Potency is inconclusive: 5.01 µM [inhibitor, full curve, poor fit].

With COC(=O)Nc1ccc(S(=O)(=O)Nc2cc(C(F)(F)F)c[nH]c2=O)cc1 as the compound, how does the Potency read?
Its Potency is inconclusive: 25.1 µM [inhibitor, partial curve, poor fit].

Which Potency does the source give for CCCC[C@@H]1CCCO[C@@](C(=O)NCc2ccccn2)(C(F)(F)F)C1 here?
The Potency was inconclusive: 39.8 µM [inhibitor, partial curve, poor fit].

With Cc1nn(Cc2ccccc2Cl)c(C)c1NC(=O)NC1CCCC1 as the compound, how does the Potency read?
The Potency was inconclusive: 141 µM [inhibitor, partial curve, poor fit].

With CC(=O)N1CCN([C@H]2[C@@H]3OC[C@@H](O3)[C@@H](NCc3ccco3)[C@@H]2O)CC1 as the compound, how does the Potency read?
Its Potency is inconclusive: 31.6 µM [inhibitor, partial curve, poor fit].

How did the “activity change, negative = inhibition” value turn out when C=CCc1cc(/C=C2\NC(=O)NC2=O)cc(OCC)c1OCc1ccc(F)cc1 was run?
Its value is inactive: -13.8%.

Which Potency does the source give for CCCCn1c(-c2csc3ccccc23)n[nH]c1=S here?
The Potency was inconclusive: 15.8 µM [inhibitor, full curve, poor fit].

Cc1ccc(NC(=O)c2nn(CC(C)C)c(=O)c3ccccc23)cc1S(=O)(=O)N1CCOCC1 was tested. Which “activity change, negative = inhibition” value did it give?
Its value is inactive: -6.82%.

How did the “activity change, negative = inhibition” value turn out when O=C(CNC(=O)c1ccc2c(c1)OCO2)N/N=C(Br)/C=C/c1ccccc1 was run?
Its value is inactive: -3.15%.

How did the Potency turn out when Nc1[nH]c(C(=O)c2ccccc2)c(-c2ccc(Cl)cc2)c1C(=O)c1c[nH]c2ccc(Br)cc12 was run?
Its Potency is inconclusive: 44.7 µM [inhibitor, partial curve, poor fit].

Which “activity change, negative = inhibition” value does the source give for CN(c1nc(-c2ccc(Br)cc2)cs1)C1CCS(=O)(=O)C1 (centres undefined) here?
Its value is inactive: -11.7%.

With CCCC(=O)N1CCC(Oc2ccc3c(cnn3CCC(=O)O)c2)CC1 as the compound, how does the Potency read?
The Potency was inconclusive: 63.1 µM [inhibitor, partial curve, poor fit].

For COCc1nc(C2CCN(C(=O)N(C)C)C2)no1 (centres undefined), which “activity change, negative = inhibition” value is on record?
Its value is inactive: 22.6%.

Which Potency does the source give for C#Cc1ccc([C@@H]2C=C(C(=O)N3CCOCC3)O[C@H](OCCCCO)C2)cc1 here?
The Potency was inconclusive: 7.94 µM [inhibitor, partial curve, poor fit].

With CCOC(=O)C1CCCN(C(=O)c2sc3nc(-c4ccc(OC)cc4)cn3c2C)C1 (centres undefined) as the compound, how does the Potency read?
Its Potency is inconclusive: 44.7 µM [inhibitor, partial curve, poor fit].

Which “activity change, negative = inhibition” value does the source give for COc1ccc(C(=O)CCC(=O)N2CCN(c3cccc(Cl)c3)CC2)cc1 here?
The value was inactive: 3.75% [at 57.4 µM].

With Cc1ccc(C(=O)NCC(C)NC(=O)c2ccc(C)c(C)c2)cc1C (centres undefined) as the compound, how does the Potency read?
The Potency was inconclusive: 100 µM [inhibitor, partial curve, poor fit].

With COc1ccc(OC)c(C2=C/C(=C/c3ccccn3)C(=O)O2)c1 as the compound, how does the Potency read?
The Potency was inconclusive: 31.6 µM [inhibitor, partial curve].

How did the “activity change, negative = inhibition” value turn out when CN(C)CCNc1cccc2sc3ccc(O)cc3c(=O)c12 was run?
The value was inactive: -24.9%.

COc1ccc(-n2nnnc2C(c2cccs2)N2CCN(C/C=C/c3ccccc3)CC2)cc1 (centres undefined) was tested. Which Potency did it give?
Its Potency is inconclusive: 35.5 µM [inhibitor, partial curve].

Clc1ccc(-c2noc(CSc3nncc4ccccc34)n2)cc1 was tested. Which Potency did it give?
The Potency was inconclusive: 35.5 µM [inhibitor, partial curve].

For Cc1cc(-c2ccc(S(=O)(=O)Nc3ccccc3C)cc2)on1, which Potency is on record?
The Potency was inconclusive: 70.8 µM [inhibitor, partial curve, poor fit].

And the activity change, negative = inhibition?
Its activity change, negative = inhibition is inconclusive: -39.1% [inhibitor].

With CCCCCn1nc(C(=O)N2CCCC2c2nc3ccccc3s2)c2ccccc2c1=O (centres undefined) as the compound, how does the Potency read?
The Potency was inconclusive: 28.2 µM [inhibitor, single point].

Which “activity change, negative = inhibition” value does the source give for CCN(CC)S(=O)(=O)c1cc(F)ccc1OC here?
Its value is inactive: -20.4%.

How did the Potency turn out when CC(C)NC(=O)NCc1c(-n2cccc2)sc2c1CCN(C)C2 was run?
The Potency was inconclusive: 25.1 µM [inhibitor, single point].

How did the Potency turn out when Nc1cc(S(=O)(=O)Nc2ccccc2Cl)ccc1N1CCCCC1 was run?
The Potency was active: 28.2 µM.

O=C(OC1CCOC1=O)c1cncc(Br)c1 (centres undefined) was tested. Which Potency did it give?
Its Potency is inconclusive: 89.1 µM [inhibitor, single point].

Which “activity change, negative = inhibition” value does the source give for NC(c1csc(NC(=O)Nc2ccccc2Cl)n1)C1CCCCC1 (centres undefined) here?
Its value is inactive: 1.63%.
